According to PubChem BioAssay AID330 (DTP/NCI, 2004):
The list is a part of this screen's results and no random one: it is rich in T/C values a quarter to a half above the control, in often repeated tests (any T/C) and in doses without a T/C. Further doses and runs are listed elsewhere. T/C gives the treated animals as a percentage of the vehicle group. Some entries give survivors of the animals treated and no T/C: the source files T/C as zero there, which appears to mark a toxic dose or a test without result, not a measured value. Some survivor counts are full or nearly so, which does not show that the dose was tolerated: the source hardly ever lists a survival T/C far under the control, and the zero likely stands for such cases as well. Counts of survivors are from the toxicity check (mostly the fifth day) where no day follows; animals may have died later. Schedules are NCI's codes, taken here to give the interval after Q, in days (D) or hours (H), and the number of doses after X. Some entries were tested several times; their values stand side by side, smallest first. Additions like (4×) count equal records among those shown. For survival time, this PubChem deposit counts one and a half times the control or more as active, and values a quarter to a half above the control carry no call in these data; other NCI protocols may use other cut-offs. Some T/C values are followed by the survivors on the day toxicity was checked, most often the fifth; where none is given, no animal had died by that day.

Test system: P388 leukemia ip, CD2F1 mice, survival T/C
Experiment: NCI In Vivo Anticancer Drug Screen. Data for tumor model P388 Leukemia (intraperitoneal) in CD2F1 (CDF1) mice
Details: T/C endpoint: median survival time, higher T/C = longer survival
[1] = dose: 0.5 mg/kg/injection, schedule: Q01DX009 (ip), vehicle: water
[2] = dose: 1.0 mg/kg/injection, schedule: Q01DX009 (ip), vehicle: water

For `CC[C@]1(O)C[C@H]2CN(CCc3c([nH]c4ccccc34)[C@@](C(=O)OC)(c3cc4c(cc3OC)N(C=O)[C@H]3[C@@](O)(C(=O)OC)[C@H](OC(C)=O)[C@]5(CC)C=CCN6CC[C@]43[C@@H]65)C2)C1`, the T/C (dose: 0.5 mg/kg/injection, schedule: Q01DX009 (ip), vehicle: saline, evaluated on day 5) was 74 % of control, the T/C (dose: 0.5 mg/kg/injection, schedule: Q01DX009 (ip), vehicle: saline, evaluated on day 10) was 116 % of control [6 of 8 alive] and the T/C (dose: 0.5 mg/kg/injection, schedule: Q01DX009 (ip), vehicle: saline, evaluated on day 30) was 100 % of control. The survivor count (dose: 0.5 mg/kg/injection, schedule: Q01DX009 (ip), vehicle: saline) was 10 of 10 and 6 of 6, the T/C [1] was 105, 127, 189, 201 % of control and the survivor count [1] was 5 of 6 and 6 of 6 (2×). The T/C (dose: 0.5 mg/kg/injection, schedule: Q04DX003 (ip), vehicle: saline, evaluated on day 5) was 172, 180, 215 % of control, the T/C (dose: 0.5 mg/kg/injection, schedule: Q04DX003 (ip), vehicle: saline, evaluated on day 9) was 122, 127, 133 (2×), 155 % of control and the T/C (dose: 0.5 mg/kg/injection, schedule: Q04DX003 (ip), vehicle: saline, evaluated on day 30) was 105 and 184 % of control. The T/C (dose: 0.5 mg/kg/injection, schedule: Q04DX003 (ip), vehicle: saline, evaluated on day 35) was 183 % of control, the T/C (dose: 0.5 mg/kg/injection, schedule: Q04DX003 (ip), vehicle: saline, evaluated on day 45) was 177, 180, 200 % of control and the T/C (dose: 0.5 mg/kg/injection, schedule: Q04DX003 (ip), vehicle: saline, evaluated on day 60) was 173, 181, 189 % of control. The T/C (dose: 0.5 mg/kg/injection, schedule: Q04DX003 (iv), vehicle: saline) was 126 % of control, the T/C (dose: 0.53 mg/kg/injection, schedule: Q04DX003 (iv), vehicle: saline) was 133 and 134 % of control and the T/C (dose: 0.67 mg/kg/injection, schedule: Q04DX003 (ip), vehicle: saline, evaluated on day 5) was 160 and 174 % of control. The T/C (dose: 0.67 mg/kg/injection, schedule: Q04DX003 (ip), vehicle: saline, evaluated on day 9) was 150 and 153 % of control, the T/C (dose: 0.67 mg/kg/injection, schedule: Q04DX003 (ip), vehicle: saline, evaluated on day 60) was 178, 179, 193, 206 % of control [9 of 10 alive] and the T/C (dose: 0.72 mg/kg/injection, schedule: Q04DX003 (ip), vehicle: saline) was 171, 173, 182, 184 % of control. For the same compound, the T/C (dose: 0.75 mg/kg/injection, schedule: Q04DX002 (ip), vehicle: saline) was 144 % of control, the survivor count (dose: 0.8 mg/kg/injection, schedule: Q01DX009 (ip), vehicle: saline) was 3 of 6 and 5 of 6 and the T/C (dose: 0.8 mg/kg/injection, schedule: Q04DX003 (ip), vehicle: water) was 135 % of control. For the same compound, the T/C (dose: 0.86 mg/kg/injection, schedule: Q04DX003 (ip), vehicle: saline) was 132, 150, 153, 155, 162, 175, 182, 220 % of control, the T/C (dose: 1.0 mg/kg/injection, schedule: Q01DX001 (ip), vehicle: Klucel (hydroxypropylcellulose) (HPC)) was 126 and 139 % of control and the T/C (dose: 1.0 mg/kg/injection, schedule: Q01DX001 (ip), vehicle: saline with Tween-80) was 132 % of control. For the same compound, the T/C (dose: 1.0 mg/kg/injection, schedule: Q01DX001 (ip), vehicle: saline, evaluated on day 5) was 114, 130, 145, 148, 150, 157, 159, 164 % of control, the T/C (dose: 1.0 mg/kg/injection, schedule: Q01DX001 (ip), vehicle: saline, evaluated on day 30) was 132, 153 (2×), 160, 165, 180 (2×), 187, 187 [5 of 6 alive], 193, 194, 201 % of control and the survivor count (dose: 1.0 mg/kg/injection, schedule: Q01DX001 (ip), vehicle: saline) was 5 of 6. For the same compound, the T/C (dose: 1.0 mg/kg/injection, schedule: Q01DX001 (ip), vehicle: water, evaluated on day 3) was 155 % of control, the T/C (dose: 1.0 mg/kg/injection, schedule: Q01DX001 (ip), vehicle: water, evaluated on day 5) was 136, 149, 150, 152, 157, 160, 172 % of control and the T/C (dose: 1.0 mg/kg/injection, schedule: Q01DX001 (ip), vehicle: water, evaluated on day 6) was 138, 144, 147 % of control. For the same compound, the T/C (dose: 1.0 mg/kg/injection, schedule: Q01DX001 (ip), vehicle: water, evaluated on day 10) was 104 % of control, the T/C (dose: 1.0 mg/kg/injection, schedule: Q01DX001 (ip), vehicle: water, evaluated on day 20) was 150 % of control and the T/C (dose: 1.0 mg/kg/injection, schedule: Q01DX001 (ip), vehicle: water, evaluated on day 30) was 131, 138, 139, 140, 143, 144, 145 (3×), 148 [5 of 6 alive], 149 (2×), 150 (2×), 151, 152 (4×), 153 (2×), 154, 155 (2×), 158, 159, 160, 161 [4 of 6 alive], 164, 165 (2×), 172, 177, 177 % of control [4 of 6 alive]. The T/C (dose: 1.0 mg/kg/injection, schedule: Q01DX001 (ip), vehicle: water, evaluated on day 35) was 157 % of control, the survivor count (dose: 1.0 mg/kg/injection, schedule: Q01DX001 (ip), vehicle: water) was 3 of 6 (2×) and the T/C (dose: 1.0 mg/kg/injection, schedule: Q01DX001 (iv), vehicle: saline) was 140 % of control. The survivor count (dose: 1.0 mg/kg/injection, schedule: Q01DX005 (ip), vehicle: saline) was 6 of 6, the T/C (dose: 1.0 mg/kg/injection, schedule: Q01DX009 (ip), vehicle: saline, evaluated on day 5) was 77 % of control and the T/C (dose: 1.0 mg/kg/injection, schedule: Q01DX009 (ip), vehicle: saline, evaluated on day 30) was 98 % of control [3 of 6 alive]. For the same compound, the survivor count (dose: 1.0 mg/kg/injection, schedule: Q01DX009 (ip), vehicle: saline) was 4 of 6 and 10 of 10, the T/C [2] was 91 % of control and the survivor count [2] was 2 of 6, 4 of 6, 5 of 6, 6 of 6. For the same compound, the T/C (dose: 1.0 mg/kg/injection, schedule: Q04DX003 (ip), vehicle: saline, evaluated on day 5) was 174, 175, 201, 206, 207, 208, 218, 274 % of control, the T/C (dose: 1.0 mg/kg/injection, schedule: Q04DX003 (ip), vehicle: saline, evaluated on day 9) was 119, 141, 151, 158, 164, 169, 169 % of control [6 of 7 alive] and the T/C (dose: 1.0 mg/kg/injection, schedule: Q04DX003 (ip), vehicle: saline, evaluated on day 20) was 182 % of control. For the same compound, the T/C (dose: 1.0 mg/kg/injection, schedule: Q04DX003 (ip), vehicle: saline, evaluated on day 23) was 196 % of control, the T/C (dose: 1.0 mg/kg/injection, schedule: Q04DX003 (ip), vehicle: saline, evaluated on day 30, list 1 of 2) was 153, 167, 172 (2×), 175, 178, 179, 181, 186, 188, 189, 190, 192, 198, 199, 200, 201, 203, 205, 208 (2×), 209, 213, 214, 215, 217, 218, 221, 226, 234, 245, 252 % of control and the T/C (dose: 1.0 mg/kg/injection, schedule: Q04DX003 (ip), vehicle: saline, evaluated on day 30, list 2 of 2) was 95, 125, 163, 169, 172, 173, 178, 179 [5 of 6 alive], 180, 185, 187, 189, 190, 192, 193, 198, 199, 201, 203, 205, 207, 208, 209, 213, 214, 215, 216, 218, 220, 223, 227, 239, 247 % of control. The T/C (dose: 1.0 mg/kg/injection, schedule: Q04DX003 (ip), vehicle: saline, evaluated on day 35) was 226 % of control.
